# In publication doi:10.1101/2022.08.31.505651:
# Like-named read-outs stand apart in the source and are kept apart here. These are yes or no findings as the source states them, for the method shown. In cells and extracts the contact can be indirect. Some binding calls cover weakened binding; strength is not graded here. For some of these results: Sequences can lack the tags named with a protein.
# T1: 3xHA-C21ORF2 wild type (human) (UniProt O43822)
# T1 sequence: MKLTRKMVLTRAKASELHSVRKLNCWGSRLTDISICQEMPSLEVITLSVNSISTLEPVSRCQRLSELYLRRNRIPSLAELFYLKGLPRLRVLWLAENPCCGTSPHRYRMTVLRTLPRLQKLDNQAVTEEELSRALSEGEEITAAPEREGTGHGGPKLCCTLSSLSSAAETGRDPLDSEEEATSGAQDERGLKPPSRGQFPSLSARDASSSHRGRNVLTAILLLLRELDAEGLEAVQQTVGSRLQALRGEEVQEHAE
# T2: 3xHA-C21ORF2 T150I (human) (UniProt O43822)
# T2 sequence: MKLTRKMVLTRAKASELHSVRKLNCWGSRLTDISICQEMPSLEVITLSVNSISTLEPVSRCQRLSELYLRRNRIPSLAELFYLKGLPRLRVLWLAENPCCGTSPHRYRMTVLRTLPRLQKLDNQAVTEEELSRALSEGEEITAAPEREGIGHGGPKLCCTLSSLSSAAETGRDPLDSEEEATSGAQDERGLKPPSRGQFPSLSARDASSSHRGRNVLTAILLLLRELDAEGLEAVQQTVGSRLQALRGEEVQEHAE
# T3: 3xHA-C21ORF2 L224P (human) (UniProt O43822)
# T3 sequence: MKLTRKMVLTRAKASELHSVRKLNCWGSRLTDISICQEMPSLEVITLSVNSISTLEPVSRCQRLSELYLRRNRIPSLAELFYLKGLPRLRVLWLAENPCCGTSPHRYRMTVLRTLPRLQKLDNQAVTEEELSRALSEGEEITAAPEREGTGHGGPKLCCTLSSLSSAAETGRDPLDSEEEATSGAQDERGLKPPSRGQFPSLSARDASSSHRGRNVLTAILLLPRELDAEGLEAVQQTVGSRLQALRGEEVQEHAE
# T4: 3xHA-C21ORF2 R73P (human) (UniProt O43822)
# T4 sequence: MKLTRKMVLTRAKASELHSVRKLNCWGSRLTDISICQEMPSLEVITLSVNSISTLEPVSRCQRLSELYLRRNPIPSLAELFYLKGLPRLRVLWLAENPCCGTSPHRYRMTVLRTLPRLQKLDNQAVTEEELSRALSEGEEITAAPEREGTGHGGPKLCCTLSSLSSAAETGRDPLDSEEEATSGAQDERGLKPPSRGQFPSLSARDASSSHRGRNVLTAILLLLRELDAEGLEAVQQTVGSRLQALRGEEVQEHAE
# T5: GFP-C21ORF2 (human) (UniProt O43822)
# T5 sequence: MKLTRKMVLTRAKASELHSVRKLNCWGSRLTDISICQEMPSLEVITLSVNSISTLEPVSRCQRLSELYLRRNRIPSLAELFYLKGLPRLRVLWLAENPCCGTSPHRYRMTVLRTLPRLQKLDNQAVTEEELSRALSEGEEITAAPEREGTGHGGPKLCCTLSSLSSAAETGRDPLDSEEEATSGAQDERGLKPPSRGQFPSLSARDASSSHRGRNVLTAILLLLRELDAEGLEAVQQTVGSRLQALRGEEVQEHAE
# T6: C21ORF2 (endogenous) (human (endogenous in ARPE-19, HeLa, HEK293, U2OS)) (UniProt O43822)
# T6 sequence: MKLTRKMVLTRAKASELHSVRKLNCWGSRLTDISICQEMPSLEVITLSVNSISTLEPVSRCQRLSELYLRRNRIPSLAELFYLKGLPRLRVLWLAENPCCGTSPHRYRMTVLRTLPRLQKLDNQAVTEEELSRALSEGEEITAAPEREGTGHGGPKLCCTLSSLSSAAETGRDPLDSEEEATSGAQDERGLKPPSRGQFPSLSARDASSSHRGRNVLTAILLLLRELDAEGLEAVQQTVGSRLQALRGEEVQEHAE
# T7: C21ORF2 L73P (R73P elsewhere in the paper) re-expressed in C21ORF2-KO ARPE-19 cells (human) (UniProt O43822)
# T7 sequence: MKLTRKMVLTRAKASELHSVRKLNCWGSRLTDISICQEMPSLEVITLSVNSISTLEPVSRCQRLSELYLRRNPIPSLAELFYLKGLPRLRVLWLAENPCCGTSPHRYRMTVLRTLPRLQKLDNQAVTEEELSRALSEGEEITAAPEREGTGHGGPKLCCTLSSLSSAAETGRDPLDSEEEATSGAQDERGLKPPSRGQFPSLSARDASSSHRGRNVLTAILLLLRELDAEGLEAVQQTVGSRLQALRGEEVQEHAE
# T8: C21ORF2 L224P re-expressed in C21ORF2-KO ARPE-19 cells (human) (UniProt O43822)
# T8 sequence: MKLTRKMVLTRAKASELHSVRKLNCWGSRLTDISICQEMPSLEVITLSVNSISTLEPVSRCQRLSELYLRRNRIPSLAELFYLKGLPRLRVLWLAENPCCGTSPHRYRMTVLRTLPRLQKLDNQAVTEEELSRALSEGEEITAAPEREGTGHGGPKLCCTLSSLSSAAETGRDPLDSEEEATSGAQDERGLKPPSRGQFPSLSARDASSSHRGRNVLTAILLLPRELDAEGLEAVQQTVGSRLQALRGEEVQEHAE
# Assays:
# Experiment in all cases: co-IP
# [1] = biological target: T1, 3xHA-C21ORF2 wild type (human)
# [2] = biological target: T2, 3xHA-C21ORF2 T150I (human)
# [3] = biological target: T3, 3xHA-C21ORF2 L224P (human)
# [4] = biological target: T4, 3xHA-C21ORF2 R73P (human)
# GFP-C21ORF2 (human) = biological target: T5, GFP-C21ORF2 (human)
# [5] = biological target: T6, C21ORF2 (endogenous) (human (endogenous in ARPE-19, HeLa, HEK293, U2OS))
# [6] = biological target: T7, C21ORF2 L73P (R73P elsewhere in the paper) re-expressed in C21ORF2-KO ARPE-19 cells (human)
# [7] = biological target: T8, C21ORF2 L224P re-expressed in C21ORF2-KO ARPE-19 cells (human)
# [8] = biological target: T6, C21ORF2 (endogenous) (human (endogenous in ARPE-19, HeLa, HEK293, U2OS)); remark: listed apart in the source
# [9] = biological target: T6, C21ORF2 (endogenous) (human (endogenous in ARPE-19, HeLa, HEK293, U2OS)); remark: listed apart in the source
Binder,binding [1],binding [2],binding [3],binding [4],binding (GFP-C21ORF2 (human)),binding [5],binding [6],binding [7],binding [8],binding [9]
"3xFLAG-NEK1 full length (1-1286) (enzyme, UniProt Q96PY6-3 1-1286) MEKYVRLQKIGEGSFGKAILVKSTEDGRQYVIKEINISRMSSKEREESRREVAVLANMKHPNIVQYRESFEENGSLYIVMDYCEGGDLFKRINAQKGVLFQEDQILDWFVQICLALKHVHDRKILHRDIKSQNIFLTKDGTVQLGDFGIARVLNSTVELARTCIGTPYYLSPEICENKPYNNKSDIWALGCVLYELCTLKHAFEAGSMKNLVLKIISGSFPPVSLHYSYDLRSLVSQLFKRNPRDRPSVNSILEKGFIAKRIEKFLSPQLIAEEFCLKTFSKFGSQPIPAKRPASGQNSISVMPAQKITKPAAKYGIPLAYKKYGDKKLHEKKPLQKHKQAHQTPEKRVNTGEERRKISEEAARKRRLEFIEKEKKQKDQIISLMKAEQMKRQEKERLERINRAREQGWRNVLSAGGSGEVKAPFLGSGGTIAPSSFSSRGQYEHYHAIFDQMQQQRAEDNEAKWKREIYGRGLPERGILPGVRPGFPYGAAGHHHFPDADDIRKTLKRLKAVSKQANANRQKGQLAVERAKQVEEFLQRKREAMQNKARAEGHMGILQNLAAMYGGRPSSSRGGKPRNKEEEVYLARLRQIRLQNFNERQQIKAKLRGEKKEANHSEGQEGSEEADMRRKKIESLKAHANARAAVLKEQLERKRKEAYEREKKVWEEHLVAKGVKSSDVSPPLGQHETGGSPSKQQMRSVISVTSALKEVGVDSSLTDTRETSEEMQKTNNAISSKREILRRLNENLKAQEDEKGKQNLSDTFEINVHEDAKEHEKEKSVSSDRKKWEAGGQLVIPLDELTLDTSFSTTERHTVGEVIKLGPNGSPRRAWGKSPTDSVLKILGEAELQLQTELLENTTIRSEISPEGEKYKPLITGEKKVQCISHEINPSAIVDSPVETKSPEFSEASPQMSLKLEGNLEEPDDLETEILQEPSGTNKDESLPCTITDVWISEEKETKETQSADRITIQENEVSEDGVSSTVDQLSDIHIEPGTNDSQHSKCDVDKSVQPEPFFHKVVHSEHLNLVPQVQSVQCSPEESFAFRSHSHLPPKNKNKNSLLIGLSTGLFDANNPKMLRTCSLPDLSKLFRTLMDVPTVGDVRQDNLEIDEIEDENIKEGPSDSEDIVFEETDTDLQELQASMEQLLREQPGEEYSEEEESVLKNSDVEPTANGTDVADEDDNPSSESALNEEWHSDNSDGEIASECECDSVFNHLEELRLHLEQEMGFEKFFEVYEKIKAIHEDEDENIEICSKIVQNILGNEHQHLYAKILHLVMADGAYQEDNDE",binds,binds,binds,binds,binds,–,–,–,–,–
"NEK1 (endogenous) (enzyme, UniProt Q96PY6-3 1-1286) MEKYVRLQKIGEGSFGKAILVKSTEDGRQYVIKEINISRMSSKEREESRREVAVLANMKHPNIVQYRESFEENGSLYIVMDYCEGGDLFKRINAQKGVLFQEDQILDWFVQICLALKHVHDRKILHRDIKSQNIFLTKDGTVQLGDFGIARVLNSTVELARTCIGTPYYLSPEICENKPYNNKSDIWALGCVLYELCTLKHAFEAGSMKNLVLKIISGSFPPVSLHYSYDLRSLVSQLFKRNPRDRPSVNSILEKGFIAKRIEKFLSPQLIAEEFCLKTFSKFGSQPIPAKRPASGQNSISVMPAQKITKPAAKYGIPLAYKKYGDKKLHEKKPLQKHKQAHQTPEKRVNTGEERRKISEEAARKRRLEFIEKEKKQKDQIISLMKAEQMKRQEKERLERINRAREQGWRNVLSAGGSGEVKAPFLGSGGTIAPSSFSSRGQYEHYHAIFDQMQQQRAEDNEAKWKREIYGRGLPERGILPGVRPGFPYGAAGHHHFPDADDIRKTLKRLKAVSKQANANRQKGQLAVERAKQVEEFLQRKREAMQNKARAEGHMGILQNLAAMYGGRPSSSRGGKPRNKEEEVYLARLRQIRLQNFNERQQIKAKLRGEKKEANHSEGQEGSEEADMRRKKIESLKAHANARAAVLKEQLERKRKEAYEREKKVWEEHLVAKGVKSSDVSPPLGQHETGGSPSKQQMRSVISVTSALKEVGVDSSLTDTRETSEEMQKTNNAISSKREILRRLNENLKAQEDEKGKQNLSDTFEINVHEDAKEHEKEKSVSSDRKKWEAGGQLVIPLDELTLDTSFSTTERHTVGEVIKLGPNGSPRRAWGKSPTDSVLKILGEAELQLQTELLENTTIRSEISPEGEKYKPLITGEKKVQCISHEINPSAIVDSPVETKSPEFSEASPQMSLKLEGNLEEPDDLETEILQEPSGTNKDESLPCTITDVWISEEKETKETQSADRITIQENEVSEDGVSSTVDQLSDIHIEPGTNDSQHSKCDVDKSVQPEPFFHKVVHSEHLNLVPQVQSVQCSPEESFAFRSHSHLPPKNKNKNSLLIGLSTGLFDANNPKMLRTCSLPDLSKLFRTLMDVPTVGDVRQDNLEIDEIEDENIKEGPSDSEDIVFEETDTDLQELQASMEQLLREQPGEEYSEEEESVLKNSDVEPTANGTDVADEDDNPSSESALNEEWHSDNSDGEIASECECDSVFNHLEELRLHLEQEMGFEKFFEVYEKIKAIHEDEDENIEICSKIVQNILGNEHQHLYAKILHLVMADGAYQEDNDE",–,–,–,–,–,binds,binds weakly,binds weakly,binds,binds
